The list shows a part of the results.

Sequences of proteins named here, by UniProt entry; tags and fusion partners are left off.
UniProt Q0JBA9, entry or part of it: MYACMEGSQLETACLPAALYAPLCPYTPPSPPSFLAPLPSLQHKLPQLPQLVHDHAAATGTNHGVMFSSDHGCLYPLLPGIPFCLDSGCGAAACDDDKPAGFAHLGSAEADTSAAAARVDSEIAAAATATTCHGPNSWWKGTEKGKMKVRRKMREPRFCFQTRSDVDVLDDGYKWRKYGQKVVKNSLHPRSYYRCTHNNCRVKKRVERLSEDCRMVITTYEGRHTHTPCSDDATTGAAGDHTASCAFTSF

Experimental findings from PMC7819943, “Rice protein-binding microarrays: a tool to detect cis-acting elements near promoter regions in rice” are described below.

For this assay, the target named is OsWRKY34 (Oryza sativa, UniProt Q0JBA9 1-250). Briefly: protein-binding microarray (RPBM); PBS, 2% BSA, 51.3 ng/ul salmon testes DNA, 50 uM zinc acetate, 200 nM TF, 25 C, 1 h; high values mean tight binding. As to conditions: protein: recombinant; tags: N-terminal polyhistidine and DsRed monomer fusion (pET32a); label: CyDye5-dUTP incorporated in the synthesized complementary strand; 3' TTTTT single-stranded linker to array surface; dsDNA, one strand shown. The method in brief:
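Binding signal here means per-feature fluorescence intensity in arbitrary units. The values were read on an Axon 4000B scanner after a custom Agilent array, double-stranded by primer extension with Cy5-dUTP, was incubated with 200 nM protein at 25 °C for 1 h in PBS with 2% BSA, salmon testes DNA and 50 µM zinc acetate, then washed. The proteins were transcription factors with an N-terminal polyhistidine tag and DsRed, expressed in E. coli BL21-CodonPlus and purified on Ni–NTA.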
“TACAATGCTGGACCCATCAACATCACCAGGGGCGGATCTACGGAGTCACCTAGTGCAG”: the binding signal was 8100 fluorescence intensity (a.u.).
To “ATCATTCCTAAAATATTTCTACCGTTGGCCTCTCTACATGCGGAGTCACCTAGTGCAG” belongs 11400 fluorescence intensity (a.u.).
On to “CAGTGAATCTACCACCAGCACCCTCTATCATTAACGTATCCGGAGTCACCTAGTGCAG”, for which the binding signal was 8180 fluorescence intensity (a.u.).
With “ATATTAGTGTCTGAACACCTCATACGACACCCTATATAATCGGAGTCACCTAGTGCAG”, the binding signal was 9020 fluorescence intensity (a.u.).
To “ATTGTTTGCTTGGTCTGCTACTTGAGTTCTTAGTTCCTTTCGGAGTCACCTAGTGCAG” belongs 12100 fluorescence intensity (a.u.); to “TGCTCGTTTCTCAAGTTCTTGCACCAAATTGCACCCACCTCGGAGTCACCTAGTGCAG”, 9040 fluorescence intensity (a.u.).
With “GTGCTTATCTTCCACTTCCATGGATGTCAAATGTGCGTCACGGAGTCACCTAGTGCAG” the figure was 10000 fluorescence intensity (a.u.).
Turning to “GCGCGACTGCCACCACCTCCACCGGATTCATCTCCGCCTCCGGAGTCACCTAGTGCAG”, the binding signal was 8380 fluorescence intensity (a.u.).
For the sequence “TTGTTGTTGGTAGTAGTTTTTTGGGCACCAATTTTCCATGCGGAGTCACCTAGTGCAG”, the binding signal is 9230 fluorescence intensity (a.u.).
With “CTTTTTTTTCAAACTACTAACTTTCTCTCAACTTCGTAACCGGAGTCACCTAGTGCAG”, the binding signal is 8870 fluorescence intensity (a.u.).
Regarding “CTTCCTGCCTGTCCCTGAGTTGTACCCGCTCTATTTTTTTCGGAGTCACCTAGTGCAG”, the binding signal was 13400 fluorescence intensity (a.u.).
To “CTGTACGCGACCCCGCGTGACGGCGTGTGGGGTGGGCACGCGGAGTCACCTAGTGCAG” belongs 11900 fluorescence intensity (a.u.).
With “GGTTATATTTATCTTCATGATTGTCGCGCTGCAGTAGAAACGGAGTCACCTAGTGCAG” the figure was 9080 fluorescence intensity (a.u.).
In the case of “ATGTGATCATCAGTGTTTGATACTACCTTTTCCATTCCAGCGGAGTCACCTAGTGCAG”, the binding signal is 8050 fluorescence intensity (a.u.).
In the case of “CTCCTTGGCTCTTCTCTTATTTTTTTTTTTGCTTAAATTTCGGAGTCACCTAGTGCAG”, the binding signal is 11600 fluorescence intensity (a.u.).
To “CAGTTGTTTATTCTTTATGGTGGATTTTGATCAATAGGTTCGGAGTCACCTAGTGCAG” belongs 9450 fluorescence intensity (a.u.); to “TTGCTATGTACATTTGTGTAGTGTCTGAGTACTGTTATCCCGGAGTCACCTAGTGCAG”, 8500 fluorescence intensity (a.u.).
To “CAAATTTCTCTAATGCTTTTGGTTCCCTTTCTGCATGAACCGGAGTCACCTAGTGCAG” belongs 8660 fluorescence intensity (a.u.); to “TGGTGATTTTGTGTCTGTATCATCAAAATTTGGGTATCTTCGGAGTCACCTAGTGCAG”, 8680 fluorescence intensity (a.u.); to “TGAGTTTATTTTTTATATGGTTGGTTCTTGTAAGTTCCTACGGAGTCACCTAGTGCAG”, 8550 fluorescence intensity (a.u.).
To “TTCTCCTAGCTCGATTCCACACATGTGAACGTACGTACGTCGGAGTCACCTAGTGCAG” belongs 11000 fluorescence intensity (a.u.); to “CTACCCGCCTTCTTCTACTTCTACCACGCGCGTAGTTTCCCGGAGTCACCTAGTGCAG”, 8290 fluorescence intensity (a.u.).
Take “AGTGAACTACTTAGCGATCATCACTGCTATTTCACATGTACGGAGTCACCTAGTGCAG”: the binding signal is 9420 fluorescence intensity (a.u.).
Consider “TCCTCTTTCATTTTTCGTGTGCACGTTTTTCAAACGGCTACGGAGTCACCTAGTGCAG”, for which the binding signal is 9040 fluorescence intensity (a.u.).
Take “ATGCATCGCCAACTCCACTGCTCCATGTTGCTTCTGCGCCCGGAGTCACCTAGTGCAG”: the binding signal is 8890 fluorescence intensity (a.u.).
Consider “TTGATGGGTATTTGGGCCTTGGGCTGTTGTGTGTGTGTTTCGGAGTCACCTAGTGCAG”, for which the binding signal is 12800 fluorescence intensity (a.u.).
To “AACAACACACCTCCTCTGCACTTGCTCCTTCTCTTCTTCTCGGAGTCACCTAGTGCAG” belongs 9970 fluorescence intensity (a.u.).
On to “TTTGTTTGAACTTTTATTTTTCTTTTAAATCTTGCTTCTACGGAGTCACCTAGTGCAG”, for which the binding signal is 8850 fluorescence intensity (a.u.).
On to “TATTTCATTTTCCACGCGCACGTTTCCGAACTACTAAACGCGGAGTCACCTAGTGCAG”, for which the binding signal was 8560 fluorescence intensity (a.u.).
On to “TCAGTGTACTGTACCGTGGTTTTGGGCCTTCTGAGCTATGCGGAGTCACCTAGTGCAG”, for which the binding signal is 8560 fluorescence intensity (a.u.).
With “CCCTAACACCCTCGCCGCCGCCGACCCATTCGCCGCCGCCCGGAGTCACCTAGTGCAG” the figure was 8210 fluorescence intensity (a.u.).
With “AGACATCATTTTTGCTACACTACAGTGCATTATTCCTAATCGGAGTCACCTAGTGCAG” the figure was 8850 fluorescence intensity (a.u.); with “GTATGCTTGTTGTACACAGTAATTCTGTCTCATGTAGCCTCGGAGTCACCTAGTGCAG”, 9170 fluorescence intensity (a.u.); with “GAGCCGCGTCGAGTAGCATGTATGATTTCTGATATTGTACCGGAGTCACCTAGTGCAG”, 8810 fluorescence intensity (a.u.).
Consider “AGGGAGGTTGGATTGTGTTGGTCGTGTCGAGTTGGTCTGTCGGAGTCACCTAGTGCAG”, for which the binding signal was 9750 fluorescence intensity (a.u.).
On to “CGTTGTTTTTTTAGCGATTTTTCTGTTTTTTTCCTTTTTACGGAGTCACCTAGTGCAG”, for which the binding signal is 9830 fluorescence intensity (a.u.).
With “CACCCAACACAGATTATTCAACCCCTACCATGCCACTCTCCGGAGTCACCTAGTGCAG”, the binding signal is 8560 fluorescence intensity (a.u.).
On to “CGATTCGTGGCCACGCCAGATCGATCTCGCGGATAATTTTCGGAGTCACCTAGTGCAG”, for which the binding signal is 8440 fluorescence intensity (a.u.).
To “AAACTCGAGCCTGATAAAACCACCTCCTAATCCATCCCCGCGGAGTCACCTAGTGCAG” belongs 8350 fluorescence intensity (a.u.).
With “TAGCACACACACAAACACACATCATTTTGTTTACCAAACACGGAGTCACCTAGTGCAG” the figure was 9550 fluorescence intensity (a.u.); with “GGGGTTAGGTTTGTCTCCTGTGGCTTGTTGATGCTTTGCTCGGAGTCACCTAGTGCAG”, 9950 fluorescence intensity (a.u.); with “TGAGGTGTTAGGGTTTGAGTGCTAGGTTGTTTGCTTGATGCGGAGTCACCTAGTGCAG”, 10100 fluorescence intensity (a.u.).
